The supplement of paper PMC11546906
Structures can show the parent of a compound that is named as a salt. The list shows a part of the results. Repeats in this data set agree poorly, so a single value says little.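 FDA-approved drugs were each paired with colistin at one-eighth its MIC and screened against a multidrug-resistant, mcr-1-positive clinical E. coli isolate, with OD600 read after 24 h. Drug-free bacteria served as growth control, plain broth as blank. Combinations were active if OD600 dropped below 0.2.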

system: Escherichia coli 42 (mcr-1-positive clinical isolate); assay: OD600 after 24 h growth with compound plus colistin (absorbance units (OD600)); higher = more bacterial growth (less inhibition); details: first compound 25 µM; colistin concentration 0.5 ug/mL; incubation time 24 h; 37 °C

Structure (SMILES)	OD600
Cc1cccc(C)c1OCC(C)N (centres undefined) [Mexiletine hydrochloride] + CCC(C)CCCC(=O)N[C@@H](CCN)C(=O)N[C@H](C(=O)N[C@@H](CCN)C(=O)N[C@H]1CCNC(=O)[C@H]([C@@H](C)O)NC(=O)[C@H](CCN)NC(=O)[C@H](CCN)NC(=O)[C@H](CC(C)C)NC(=O)[C@@H](CC(C)C)NC(=O)[C@H](CCN)NC1=O)[C@@H](C)O [colistin]	inactive: 1.08
CN1CCC(=C2c3ccccc3C=Cc3ccccc32)CC1 [Cyproheptadine hydrochloride sesquihydrate] + CCC(C)CCCC(=O)N[C@@H](CCN)C(=O)N[C@H](C(=O)N[C@@H](CCN)C(=O)N[C@H]1CCNC(=O)[C@H]([C@@H](C)O)NC(=O)[C@H](CCN)NC(=O)[C@H](CCN)NC(=O)[C@H](CC(C)C)NC(=O)[C@@H](CC(C)C)NC(=O)[C@H](CCN)NC1=O)[C@@H](C)O [colistin]	inactive: 1.15
CCCCc1nc(Cl)c(CO)n1Cc1ccc(-c2ccccc2-c2nnn[nH]2)cc1 [Losartan potassium] + CCC(C)CCCC(=O)N[C@@H](CCN)C(=O)N[C@H](C(=O)N[C@@H](CCN)C(=O)N[C@H]1CCNC(=O)[C@H]([C@@H](C)O)NC(=O)[C@H](CCN)NC(=O)[C@H](CCN)NC(=O)[C@H](CC(C)C)NC(=O)[C@@H](CC(C)C)NC(=O)[C@H](CCN)NC1=O)[C@@H](C)O [colistin]	inactive: 1.14
COc1cc2ncnc(Nc3ccc(F)c(Cl)c3)c2cc1OCCCN1CCOCC1 [Gefitinib] + CCC(C)CCCC(=O)N[C@@H](CCN)C(=O)N[C@H](C(=O)N[C@@H](CCN)C(=O)N[C@H]1CCNC(=O)[C@H]([C@@H](C)O)NC(=O)[C@H](CCN)NC(=O)[C@H](CCN)NC(=O)[C@H](CC(C)C)NC(=O)[C@@H](CC(C)C)NC(=O)[C@H](CCN)NC1=O)[C@@H](C)O [colistin]	inactive: 1
CC(=O)OCC(=O)[C@@]1(O)CC[C@H]2[C@@H]3CCC4=CC(=O)C=C[C@]4(C)[C@H]3[C@@H](O)C[C@@]21C [Prednisolone acetate] + CCC(C)CCCC(=O)N[C@@H](CCN)C(=O)N[C@H](C(=O)N[C@@H](CCN)C(=O)N[C@H]1CCNC(=O)[C@H]([C@@H](C)O)NC(=O)[C@H](CCN)NC(=O)[C@H](CCN)NC(=O)[C@H](CC(C)C)NC(=O)[C@@H](CC(C)C)NC(=O)[C@H](CCN)NC1=O)[C@@H](C)O [colistin]	inactive: 0.703
C=CC1=C(C(=O)O)N2C(=O)[C@@H](NC(=O)/C(=N\O)c3csc(N)n3)[C@H]2SC1 [Cefdinir] + CCC(C)CCCC(=O)N[C@@H](CCN)C(=O)N[C@H](C(=O)N[C@@H](CCN)C(=O)N[C@H]1CCNC(=O)[C@H]([C@@H](C)O)NC(=O)[C@H](CCN)NC(=O)[C@H](CCN)NC(=O)[C@H](CC(C)C)NC(=O)[C@@H](CC(C)C)NC(=O)[C@H](CCN)NC1=O)[C@@H](C)O [colistin]	inactive: 0.246
Cn1c(=O)c2c(ncn2CC(O)CO)n(C)c1=O (centres undefined) [Diphylline] + CCC(C)CCCC(=O)N[C@@H](CCN)C(=O)N[C@H](C(=O)N[C@@H](CCN)C(=O)N[C@H]1CCNC(=O)[C@H]([C@@H](C)O)NC(=O)[C@H](CCN)NC(=O)[C@H](CCN)NC(=O)[C@H](CC(C)C)NC(=O)[C@@H](CC(C)C)NC(=O)[C@H](CCN)NC1=O)[C@@H](C)O [colistin]	inactive: 1.11
NC(=O)c1ncn([C@@H]2O[C@H](CO)[C@@H](O)[C@H]2O)n1 [Ribavirin] + CCC(C)CCCC(=O)N[C@@H](CCN)C(=O)N[C@H](C(=O)N[C@@H](CCN)C(=O)N[C@H]1CCNC(=O)[C@H]([C@@H](C)O)NC(=O)[C@H](CCN)NC(=O)[C@H](CCN)NC(=O)[C@H](CC(C)C)NC(=O)[C@@H](CC(C)C)NC(=O)[C@H](CCN)NC1=O)[C@@H](C)O [colistin]	inactive: 1.18
O=C1OCCN1/N=C/c1ccc([N+](=O)[O-])o1 [Furazolidone] + CCC(C)CCCC(=O)N[C@@H](CCN)C(=O)N[C@H](C(=O)N[C@@H](CCN)C(=O)N[C@H]1CCNC(=O)[C@H]([C@@H](C)O)NC(=O)[C@H](CCN)NC(=O)[C@H](CCN)NC(=O)[C@H](CC(C)C)NC(=O)[C@@H](CC(C)C)NC(=O)[C@H](CCN)NC1=O)[C@@H](C)O [colistin]	active: 0.04

Some of the entries so far, with bars between the fields:
Structure (SMILES) | OD600
Cn1c(=O)c2c(ncn2CC(O)CO)n(C)c1=O (centres undefined) [Diphylline] + CCC(C)CCCC(=O)N[C@@H](CCN)C(=O)N[C@H](C(=O)N[C@@H](CCN)C(=O)N[C@H]1CCNC(=O)[C@H]([C@@H](C)O)NC(=O)[C@H](CCN)NC(=O)[C@H](CCN)NC(=O)[C@H](CC(C)C)NC(=O)[C@@H](CC(C)C)NC(=O)[C@H](CCN)NC1=O)[C@@H](C)O [colistin] | inactive: 1.11
NC(=O)c1ncn([C@@H]2O[C@H](CO)[C@@H](O)[C@H]2O)n1 [Ribavirin] + CCC(C)CCCC(=O)N[C@@H](CCN)C(=O)N[C@H](C(=O)N[C@@H](CCN)C(=O)N[C@H]1CCNC(=O)[C@H]([C@@H](C)O)NC(=O)[C@H](CCN)NC(=O)[C@H](CCN)NC(=O)[C@H](CC(C)C)NC(=O)[C@@H](CC(C)C)NC(=O)[C@H](CCN)NC1=O)[C@@H](C)O [colistin] | inactive: 1.18
